# Assay results: US8555897B2, “Method of making a cigarette and method of reducing cytotoxicity in tobacco smoke” (priority 2005, dated 2013)
# Experiment: FT-IR MS gas phase composition
# Details: Table 3
smiles,measurement,setting,value
"CC(=O)O.N [NH4OAc, ammonium acetate]",reduction in methanol/TPM,FT-IR gas phase,24%
same,"MEOH/TPM, change","MS gas phase, FT-IR, change from control",−24%
same,"TPM, change","filler additive, change from control",9%
